Data taken from the supplement of paper PMC10849652.
The list shows a part of the results.

Chains of the proteins cited; added tags and fusions are not shown. Lines headed by an entry give the natural chain unless they say otherwise; changes in a name come on top.
UniProt Q9UJT1: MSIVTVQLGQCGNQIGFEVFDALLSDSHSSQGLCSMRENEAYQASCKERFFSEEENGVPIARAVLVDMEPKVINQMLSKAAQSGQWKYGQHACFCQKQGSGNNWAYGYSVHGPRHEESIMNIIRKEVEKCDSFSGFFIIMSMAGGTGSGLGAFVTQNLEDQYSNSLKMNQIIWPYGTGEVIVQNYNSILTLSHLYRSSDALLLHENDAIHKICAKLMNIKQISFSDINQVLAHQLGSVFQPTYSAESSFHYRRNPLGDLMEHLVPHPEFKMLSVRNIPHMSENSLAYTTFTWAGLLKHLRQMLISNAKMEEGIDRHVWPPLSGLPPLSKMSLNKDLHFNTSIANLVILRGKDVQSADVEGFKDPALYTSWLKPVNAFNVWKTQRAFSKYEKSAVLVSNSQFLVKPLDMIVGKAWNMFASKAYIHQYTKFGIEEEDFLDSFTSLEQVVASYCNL
UniProt Q9NX01: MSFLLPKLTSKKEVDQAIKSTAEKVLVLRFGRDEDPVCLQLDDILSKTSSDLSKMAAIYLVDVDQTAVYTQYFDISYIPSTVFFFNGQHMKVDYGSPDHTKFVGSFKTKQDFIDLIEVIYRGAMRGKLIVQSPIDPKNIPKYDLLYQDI
UniProt Q8NBP0: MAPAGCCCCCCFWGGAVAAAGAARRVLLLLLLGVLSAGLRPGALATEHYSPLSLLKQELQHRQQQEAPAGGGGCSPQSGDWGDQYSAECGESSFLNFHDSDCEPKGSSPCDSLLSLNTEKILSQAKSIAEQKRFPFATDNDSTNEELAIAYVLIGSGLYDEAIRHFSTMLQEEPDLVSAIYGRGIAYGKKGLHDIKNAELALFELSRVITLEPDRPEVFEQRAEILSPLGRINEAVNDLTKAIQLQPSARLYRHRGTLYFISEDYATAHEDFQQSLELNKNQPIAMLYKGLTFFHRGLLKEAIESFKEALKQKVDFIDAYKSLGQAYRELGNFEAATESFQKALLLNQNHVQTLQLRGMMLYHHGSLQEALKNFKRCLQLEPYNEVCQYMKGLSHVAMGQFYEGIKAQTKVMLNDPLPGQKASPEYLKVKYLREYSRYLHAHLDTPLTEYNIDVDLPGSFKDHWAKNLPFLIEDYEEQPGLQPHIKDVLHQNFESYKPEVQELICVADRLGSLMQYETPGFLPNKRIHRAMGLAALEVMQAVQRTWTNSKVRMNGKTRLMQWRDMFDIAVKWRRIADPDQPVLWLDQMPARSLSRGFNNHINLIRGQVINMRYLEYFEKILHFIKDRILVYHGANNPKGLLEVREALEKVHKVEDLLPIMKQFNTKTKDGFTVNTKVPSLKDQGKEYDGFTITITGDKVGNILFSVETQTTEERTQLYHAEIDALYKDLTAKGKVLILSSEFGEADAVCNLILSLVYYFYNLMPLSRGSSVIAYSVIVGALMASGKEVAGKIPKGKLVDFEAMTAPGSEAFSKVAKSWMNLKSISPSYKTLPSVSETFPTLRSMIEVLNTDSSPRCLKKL
UniProt Q6NXR4: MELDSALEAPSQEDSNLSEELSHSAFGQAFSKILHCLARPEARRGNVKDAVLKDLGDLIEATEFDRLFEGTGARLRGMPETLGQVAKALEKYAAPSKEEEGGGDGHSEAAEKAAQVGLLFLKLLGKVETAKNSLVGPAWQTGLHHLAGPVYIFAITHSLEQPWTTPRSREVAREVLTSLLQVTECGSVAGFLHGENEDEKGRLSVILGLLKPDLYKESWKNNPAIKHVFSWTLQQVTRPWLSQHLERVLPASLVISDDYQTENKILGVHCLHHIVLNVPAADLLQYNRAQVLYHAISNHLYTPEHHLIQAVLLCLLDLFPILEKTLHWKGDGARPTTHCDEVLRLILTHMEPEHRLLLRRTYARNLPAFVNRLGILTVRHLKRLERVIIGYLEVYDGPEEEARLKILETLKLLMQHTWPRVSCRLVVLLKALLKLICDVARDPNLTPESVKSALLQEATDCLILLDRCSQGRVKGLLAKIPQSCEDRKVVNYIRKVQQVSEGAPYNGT
UniProt Q9BTX7: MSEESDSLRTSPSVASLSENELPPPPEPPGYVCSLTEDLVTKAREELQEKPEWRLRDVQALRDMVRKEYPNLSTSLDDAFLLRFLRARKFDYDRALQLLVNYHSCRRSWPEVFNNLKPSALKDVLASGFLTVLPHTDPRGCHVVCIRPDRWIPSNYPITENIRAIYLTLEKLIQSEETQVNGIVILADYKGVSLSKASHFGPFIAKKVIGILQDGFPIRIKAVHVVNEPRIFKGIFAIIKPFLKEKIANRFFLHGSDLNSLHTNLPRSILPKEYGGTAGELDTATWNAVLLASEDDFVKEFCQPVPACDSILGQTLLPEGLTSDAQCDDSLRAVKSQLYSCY
UniProt P22314: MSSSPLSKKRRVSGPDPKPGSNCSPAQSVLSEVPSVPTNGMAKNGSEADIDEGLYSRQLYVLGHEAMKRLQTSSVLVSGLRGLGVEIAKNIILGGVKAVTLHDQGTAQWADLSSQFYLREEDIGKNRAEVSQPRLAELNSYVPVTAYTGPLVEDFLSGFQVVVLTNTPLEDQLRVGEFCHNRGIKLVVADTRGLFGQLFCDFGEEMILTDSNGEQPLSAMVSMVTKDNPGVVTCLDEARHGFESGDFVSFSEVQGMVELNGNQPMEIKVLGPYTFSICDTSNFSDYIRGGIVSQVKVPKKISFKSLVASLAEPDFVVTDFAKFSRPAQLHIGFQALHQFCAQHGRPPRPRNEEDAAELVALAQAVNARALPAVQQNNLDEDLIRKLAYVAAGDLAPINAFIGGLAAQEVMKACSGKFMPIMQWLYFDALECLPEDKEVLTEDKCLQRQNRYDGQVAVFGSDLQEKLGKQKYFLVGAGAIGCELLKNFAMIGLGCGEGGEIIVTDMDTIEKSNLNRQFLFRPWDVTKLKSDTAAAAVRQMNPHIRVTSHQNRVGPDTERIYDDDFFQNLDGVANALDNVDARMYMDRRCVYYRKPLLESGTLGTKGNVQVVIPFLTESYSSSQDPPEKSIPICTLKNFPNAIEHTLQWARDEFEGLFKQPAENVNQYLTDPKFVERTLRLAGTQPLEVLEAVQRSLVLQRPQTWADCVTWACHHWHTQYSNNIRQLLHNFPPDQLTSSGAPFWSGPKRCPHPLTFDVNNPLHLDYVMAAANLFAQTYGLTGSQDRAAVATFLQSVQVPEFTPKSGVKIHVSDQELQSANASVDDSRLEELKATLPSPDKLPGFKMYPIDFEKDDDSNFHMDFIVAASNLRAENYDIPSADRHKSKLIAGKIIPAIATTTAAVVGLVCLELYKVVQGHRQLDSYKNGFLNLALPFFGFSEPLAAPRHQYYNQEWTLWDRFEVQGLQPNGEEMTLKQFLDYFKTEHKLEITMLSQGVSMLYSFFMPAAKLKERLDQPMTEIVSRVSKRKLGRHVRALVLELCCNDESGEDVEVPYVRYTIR
UniProt P68366, whole entry, looked up: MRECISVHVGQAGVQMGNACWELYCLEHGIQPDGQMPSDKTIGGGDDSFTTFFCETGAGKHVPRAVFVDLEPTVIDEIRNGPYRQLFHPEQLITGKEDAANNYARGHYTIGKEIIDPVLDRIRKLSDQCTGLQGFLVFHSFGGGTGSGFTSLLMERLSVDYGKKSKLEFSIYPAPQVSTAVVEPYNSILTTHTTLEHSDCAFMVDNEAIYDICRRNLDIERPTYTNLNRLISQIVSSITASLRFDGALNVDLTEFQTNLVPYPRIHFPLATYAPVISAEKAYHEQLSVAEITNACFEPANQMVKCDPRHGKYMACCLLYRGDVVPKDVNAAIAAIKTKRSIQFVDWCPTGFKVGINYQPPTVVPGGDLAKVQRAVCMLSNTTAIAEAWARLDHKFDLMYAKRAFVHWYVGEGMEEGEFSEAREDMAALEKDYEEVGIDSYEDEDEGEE
UniProt Q86VQ3: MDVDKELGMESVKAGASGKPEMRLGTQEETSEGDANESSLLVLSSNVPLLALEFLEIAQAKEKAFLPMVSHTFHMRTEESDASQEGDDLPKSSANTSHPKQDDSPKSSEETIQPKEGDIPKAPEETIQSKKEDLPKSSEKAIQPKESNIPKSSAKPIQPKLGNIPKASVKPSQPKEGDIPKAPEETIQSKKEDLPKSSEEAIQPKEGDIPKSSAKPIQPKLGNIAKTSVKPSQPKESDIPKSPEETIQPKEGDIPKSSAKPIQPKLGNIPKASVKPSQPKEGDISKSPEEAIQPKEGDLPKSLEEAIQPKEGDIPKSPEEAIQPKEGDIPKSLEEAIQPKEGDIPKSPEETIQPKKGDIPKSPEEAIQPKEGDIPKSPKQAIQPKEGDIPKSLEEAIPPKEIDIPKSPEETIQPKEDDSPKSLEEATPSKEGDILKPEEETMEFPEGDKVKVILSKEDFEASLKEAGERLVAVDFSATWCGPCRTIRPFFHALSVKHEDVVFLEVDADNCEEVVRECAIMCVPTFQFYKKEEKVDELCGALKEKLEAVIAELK
UniProt P51668: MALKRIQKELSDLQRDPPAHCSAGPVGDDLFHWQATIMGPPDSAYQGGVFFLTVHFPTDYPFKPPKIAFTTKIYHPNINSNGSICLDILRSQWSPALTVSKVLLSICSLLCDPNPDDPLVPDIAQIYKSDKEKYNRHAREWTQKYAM
UniProt Q9Y385: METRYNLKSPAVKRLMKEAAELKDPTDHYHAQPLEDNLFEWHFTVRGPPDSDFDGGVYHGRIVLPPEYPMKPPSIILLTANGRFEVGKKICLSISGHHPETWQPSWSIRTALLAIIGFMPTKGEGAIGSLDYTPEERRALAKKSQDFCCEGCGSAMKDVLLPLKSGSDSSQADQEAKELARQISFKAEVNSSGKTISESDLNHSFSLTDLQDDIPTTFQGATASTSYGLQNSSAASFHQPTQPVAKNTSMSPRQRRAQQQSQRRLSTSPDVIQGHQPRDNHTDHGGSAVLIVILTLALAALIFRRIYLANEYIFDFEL
UniProt Q9UNY4: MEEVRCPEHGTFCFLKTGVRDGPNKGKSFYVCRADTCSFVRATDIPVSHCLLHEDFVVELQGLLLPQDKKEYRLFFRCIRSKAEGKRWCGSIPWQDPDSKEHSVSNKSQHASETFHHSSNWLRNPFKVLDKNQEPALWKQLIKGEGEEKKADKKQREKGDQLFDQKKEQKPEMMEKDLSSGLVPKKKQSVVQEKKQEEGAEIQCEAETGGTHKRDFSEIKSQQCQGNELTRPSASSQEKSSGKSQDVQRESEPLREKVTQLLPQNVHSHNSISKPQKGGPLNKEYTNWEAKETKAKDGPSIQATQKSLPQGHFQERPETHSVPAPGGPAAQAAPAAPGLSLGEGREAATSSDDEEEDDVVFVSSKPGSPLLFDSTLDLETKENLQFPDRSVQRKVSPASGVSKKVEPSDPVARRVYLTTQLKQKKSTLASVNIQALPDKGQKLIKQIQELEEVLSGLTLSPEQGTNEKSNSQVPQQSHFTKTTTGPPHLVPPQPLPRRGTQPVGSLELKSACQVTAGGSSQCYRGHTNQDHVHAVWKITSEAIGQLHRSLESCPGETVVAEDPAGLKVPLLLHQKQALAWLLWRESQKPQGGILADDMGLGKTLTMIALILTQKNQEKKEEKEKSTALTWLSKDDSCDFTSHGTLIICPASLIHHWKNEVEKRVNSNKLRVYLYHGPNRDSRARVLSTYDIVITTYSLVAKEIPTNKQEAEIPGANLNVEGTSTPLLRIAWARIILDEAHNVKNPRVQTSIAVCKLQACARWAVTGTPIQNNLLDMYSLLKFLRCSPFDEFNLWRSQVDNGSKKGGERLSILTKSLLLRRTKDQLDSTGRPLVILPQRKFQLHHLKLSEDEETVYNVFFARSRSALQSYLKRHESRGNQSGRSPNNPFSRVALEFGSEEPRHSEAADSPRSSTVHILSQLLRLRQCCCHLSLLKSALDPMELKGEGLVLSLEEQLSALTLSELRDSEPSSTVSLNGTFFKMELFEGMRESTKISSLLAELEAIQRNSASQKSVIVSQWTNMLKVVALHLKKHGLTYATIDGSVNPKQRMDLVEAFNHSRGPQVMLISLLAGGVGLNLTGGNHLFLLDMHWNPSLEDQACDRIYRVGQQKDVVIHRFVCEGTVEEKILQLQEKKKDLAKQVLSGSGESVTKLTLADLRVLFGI
UniProt P51965: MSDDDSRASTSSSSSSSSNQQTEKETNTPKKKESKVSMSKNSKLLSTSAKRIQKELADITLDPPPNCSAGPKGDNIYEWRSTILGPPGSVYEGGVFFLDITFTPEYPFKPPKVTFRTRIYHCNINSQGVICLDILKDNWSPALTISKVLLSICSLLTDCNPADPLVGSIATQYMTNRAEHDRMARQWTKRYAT
UniProt Q5BVD1: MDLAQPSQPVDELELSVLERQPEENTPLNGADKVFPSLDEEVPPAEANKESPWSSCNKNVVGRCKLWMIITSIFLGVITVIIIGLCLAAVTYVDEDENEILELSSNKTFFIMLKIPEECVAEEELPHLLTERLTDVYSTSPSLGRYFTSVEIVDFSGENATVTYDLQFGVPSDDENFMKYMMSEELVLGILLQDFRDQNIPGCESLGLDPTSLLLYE
UniProt P60604: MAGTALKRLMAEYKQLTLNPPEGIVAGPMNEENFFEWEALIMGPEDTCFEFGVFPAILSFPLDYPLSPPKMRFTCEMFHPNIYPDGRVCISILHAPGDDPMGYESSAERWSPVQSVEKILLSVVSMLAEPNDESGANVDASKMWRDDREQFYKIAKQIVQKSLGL

Assays:
Assay in all cases: log2 fold change, soluble protein after heating vs DMSO (PISA); higher = thermal stabilisation; K562 cells, 10 uM, 30 min; active = over 0.2 and 3.5 SD of the protein, either way, in both replicates (recomputed)
[1] = compound: CC1=C(C=C(C=C1)NC(=O)C2=CC(=CC=C2)C(C)(C)C#N)NC3=CC4=C(C=C3)N=CN(C4=O)C
Method in brief: (§1)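 K562 cells at 2×10^6 cells/mL were treated for 30 min with 10 μM compound, and aliquots were heated for 3 min over 48°C-58°C before pooling. Extraction used PBS with 0.5% NP-40 at 4°C, and soluble protein was the supernatant after 21,000xg for 90 min, measured by TMTpro 16plex LC-MS/MS with channel sums equalised. Thermal stability values, relative to control samples and from duplicates, are log2 fold changes.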

[2] = compound: CC1=C(C=C(C=C1)NC(=O)C2=CC(=CC=C2)N(C)C)NC(=O)C3=CC=C(C=C3)O
Method in brief: as §1

[3] = compound: CC1=CC=C(C=C1)SC2=C3C=C(SC3=CN=C2)C(=O)N
Method in brief: as §1

[4] = compound: CC1=NC(=CC=C1)C2=C(N=C(N2)C(C)(C)C)C3=CC4=NC=CN=C4C=C3
Method in brief: as §1

[5] = compound: CCCS(=O)(=O)Nc1ccc(F)c(C(=O)c2c[nH]c3ncc(Cl)cc23)c1F
Method in brief: as §1

volasertib = compound: CC[C@@H]1C(=O)N(C)c2cnc(Nc3ccc(C(=O)N[C@H]4CC[C@H](N5CCN(CC6CC6)CC5)CC4)cc3OC)nc2N1C(C)C [volasertib]
Method in brief: as §1

vemurafenib = compound: CCCS(=O)(=O)Nc1ccc(F)c(C(=O)c2c[nH]c3ncc(-c4ccc(Cl)cc4)cc23)c1F [vemurafenib]
Method in brief: as §1

[6] = compound: CCCc1cc(C)[nH]c(=O)c1CNC(=O)c1cc(-c2ccnc(N3CCN(C)CC3)c2)cc2c1cnn2C(C)C
Method in brief: as §1

givinostat = compound: CCN(CC)Cc1ccc2cc(COC(=O)Nc3ccc(C(=O)NO)cc3)ccc2c1 [givinostat]
Method in brief: as §1

barasertib = compound: CCN(CCCOc1ccc2c(Nc3cc(CC(=O)Nc4cccc(F)c4)[nH]n3)ncnc2c1)CCOP(=O)(O)O [barasertib]
Method in brief: as §1

[7] = compound: CC[C@@H]1C(=O)N(C)c2cnc(Nc3ccc(C(=O)NC4CCN(C)CC4)cc3OC)nc2N1C1CCCC1
Method in brief: as §1

[8] = compound: CC[C@H](C)N1C=C(C2=C(C=C(C=C21)C3=CN=C(C=C3)N4CCNCC4)C(=O)NCC5=C(C=C(NC5=O)C)C)C
Method in brief: as §1

[9] = compound: CCn1cc(-c2ccnc3[nH]c(-c4cccc(CN(C)C)c4)cc23)c(-c2ccc(NC(=O)N(C)C)cc2)n1
Method in brief: as §1

[10] = compound: CN(C)CC(=O)Nc1ccc2[nH]c(=O)c3ccccc3c2c1
Method in brief: as §1

[11] = compound: CN1C2=C(C3=C1C(=O)N(N=C3)CC4=CC(=CC=C4)N)SC(=C2)S(=O)C
Method in brief: as §1

[12] = compound: CN1CCC(CNc2ccc3ncc(-c4cccc(OC(F)(F)F)c4)n3n2)CC1
Method in brief: as §1

Nexturastat A = compound: CCCCN(Cc1ccc(C(=O)NO)cc1)C(=O)Nc1ccccc1 [Nexturastat A]
Method in brief: as §1

epoxomicin = compound: CC[C@H](C)[C@@H](C(=O)N[C@@H]([C@@H](C)O)C(=O)N[C@@H](CC(C)C)C(=O)[C@]1(CO1)C)NC(=O)[C@H]([C@@H](C)CC)N(C)C(=O)C [epoxomicin]
Method in brief: as §1

rosiglitazone = compound: CN(CCOC1=CC=C(C=C1)C[C@H]2C(=O)NC(=O)S2)C3=CC=CC=N3 (racemic) [rosiglitazone]
Method in brief: as §1

[13] = compound: CCn1c(C(=O)N(C2CC2)C2CC2)cc2c3c(ncn3C)c(Nc3cc(C)n(C)n3)nc21
Method in brief: as §1

Measured: log2 fold change

TUBD1 (UniProt Q9UJT1)
inactive: [1] 0.201 | [2] 0.023 | [3] 0.072 | [4] 0.052 | [5] -0.094 | volasertib -0.218

TXNL4B (UniProt Q9NX01)
inactive: [1] -0.037 | [2] -0.088 | [3] -0.002 | [4] -0.04 | [5] 0.024 | [6] -0.06 | givinostat 0.014 | barasertib 0.306 | [7] 0.075 | volasertib -0.111 | [8] -0.036 | [9] -0.069 | [10] 0.186 | [11] 0.051 | [12] -0.053
active: vemurafenib 0.453

UBE2K (UniProt D6RDM7)
inactive: [1] -0.164 | [2] -0.08 | [3] -0.082 | [4] -0.194 | Nexturastat A 0.189 | vemurafenib -0.199 | [5] -0.187 | barasertib 0.16 | [7] 0.113 | volasertib 0.042 | [8] -0.496 | epoxomicin -0.015 | [10] 0.023 | rosiglitazone 0.278 | [11] 0.33

TTC5 (UniProt Q8N0Z6)
inactive: [1] 0.396 | [2] -0.044 | [7] -0.057 | [11] 0.282

TTC13 (UniProt Q8NBP0)
inactive: [1] -0.02 | [2] 0.068 | [4] -0.19 | vemurafenib -0.4 | givinostat 0.054 | [7] -0.028 | [13] -0.128 | [9] 0.073 | [10] -0.044 | [11] 0.107 | [12] 0.009

TTI2 (UniProt Q6NXR4)
active: volasertib -0.414
inactive: [1] 0.021 | [2] -0.039 | [3] 0.024 | [4] 0.023 | Nexturastat A 0.113 | vemurafenib 0.047 | [5] 0.06 | [6] -0.018 | givinostat 0.135 | barasertib -0.028 | [7] -0.173 | [8] 0.021 | epoxomicin 0.085 | [10] 0.09 | [11] 0.03

UBA52 (UniProt P62987)
inactive: [1] -0.046 | [2] 0.024 | [3] -0.107 | [4] -0.16 | Nexturastat A 0.281 | vemurafenib -0.212 | [5] -0.165 | [6] 0.205 | givinostat -0.06 | barasertib 0.044 | [7] 0.227 | volasertib 0.572 | epoxomicin -0.29 | [9] 0.351 | [10] -0.256 | [12] 0.369

TTPAL (UniProt Q9BTX7)
inactive: [1] 0 | [2] 0 | [3] 0.011 | [4] -0.044 | Nexturastat A 0.017 | vemurafenib -0.085 | [5] -0.013 | givinostat 0.046 | barasertib 0.052 | [7] 0.044 | volasertib -0.251 | [8] 0.095 | epoxomicin 0.048 | [13] -0.018 | [9] -0.098 | [10] 0.1 | rosiglitazone 0.034 | [11] -0.032 | [12] 0.082

UBA1 (UniProt P22314)
inactive: [1] 0.039 | [2] -0.054 | [3] 0.048 | [4] 0.006 | Nexturastat A -0.066 | vemurafenib 0.084 | [5] 0.089 | [6] 0.058 | givinostat 0.074 | barasertib 0.138 | [7] -0.236 | [8] 0.133 | epoxomicin 0.044 | [9] -0.008 | [10] 0.115 | [11] 0.023 | [12] -0.02
active: volasertib -0.543

TTC7B isoform 2 (UniProt Q86TV6)
inactive: [1] 0.041 | [2] 0.059 | [3] -0.081 | [4] 0.048 | vemurafenib 0.016 | [5] -0.172 | givinostat 0.035 | barasertib -0.047 | [7] 0.07 | volasertib -0.067 | [8] 0.166 | [13] -0.102 | [9] -0.024 | [10] 0.182 | rosiglitazone 0.007 | [11] 0.033 | [12] 0.149

TSG101 (UniProt Q99816)
inactive: [1] 0 | [2] -0.011 | [3] -0.001 | [4] 0.025 | Nexturastat A -0.017 | vemurafenib 0.021 | [5] 0.024 | [6] -0.057 | givinostat 0.035 | barasertib 0.046 | [7] -0.137 | [8] 0.036 | epoxomicin 0.065 | [9] -0.021 | [10] 0.002 | [11] -0.018 | [12] -0.124
active: volasertib -0.268

TUBA4A (UniProt P68366)
active: [12] -0.261
inactive: [1] 0.005 | [2] 0.004 | [3] 0.061 | [4] 0.04 | Nexturastat A -0.03 | vemurafenib 0.005 | [5] 0.068 | [6] -0.004 | givinostat 0.014 | barasertib -0.002 | [7] -0.024 | volasertib -0.01 | [8] 0.007 | epoxomicin 0.055 | [9] -0.064 | [10] -0.013 | [11] -0.168

TXNDC2 (UniProt Q86VQ3)
inactive: [1] -0.01 | [2] 0.105 | [3] -0.136 | vemurafenib 0.005 | [5] -0.011 | barasertib 0.118 | [7] -0.203 | volasertib 0.071 | [8] -0.138 | [10] -0.03 | rosiglitazone 0.094 | [11] -0.061

UBE3B (UniProt Q7Z3V4)
active: volasertib -0.554
inactive: [1] 0.142 | [2] 0.086 | [3] -0.03 | [4] 0.007 | Nexturastat A 0.014 | [5] -0.099 | barasertib -0.057 | [8] 0.088 | epoxomicin -0.023 | [11] -0.007

UBE2D1 (UniProt P51668)
inactive: [1] -0.08 | [2] 0.029 | [3] 0.021 | vemurafenib 0.156 | [5] 0.097 | [6] -0.004 | givinostat -0.035 | barasertib 0.047 | [7] -0.123 | [8] -0.024 | [9] -0.045 | [10] 0.017 | [11] -0.109 | [12] -0.095
active: volasertib -0.333

Four consecutive records from above:
TSG101 (UniProt Q99816)
inactive: [1] 0 | [2] -0.011 | [3] -0.001 | [4] 0.025 | Nexturastat A -0.017 | vemurafenib 0.021 | [5] 0.024 | [6] -0.057 | givinostat 0.035 | barasertib 0.046 | [7] -0.137 | [8] 0.036 | epoxomicin 0.065 | [9] -0.021 | [10] 0.002 | [11] -0.018 | [12] -0.124
active: volasertib -0.268

TUBA4A (UniProt P68366)
active: [12] -0.261
inactive: [1] 0.005 | [2] 0.004 | [3] 0.061 | [4] 0.04 | Nexturastat A -0.03 | vemurafenib 0.005 | [5] 0.068 | [6] -0.004 | givinostat 0.014 | barasertib -0.002 | [7] -0.024 | volasertib -0.01 | [8] 0.007 | epoxomicin 0.055 | [9] -0.064 | [10] -0.013 | [11] -0.168

TXNDC2 (UniProt Q86VQ3)
inactive: [1] -0.01 | [2] 0.105 | [3] -0.136 | vemurafenib 0.005 | [5] -0.011 | barasertib 0.118 | [7] -0.203 | volasertib 0.071 | [8] -0.138 | [10] -0.03 | rosiglitazone 0.094 | [11] -0.061

UBE3B (UniProt Q7Z3V4)
active: volasertib -0.554
inactive: [1] 0.142 | [2] 0.086 | [3] -0.03 | [4] 0.007 | Nexturastat A 0.014 | [5] -0.099 | barasertib -0.057 | [8] 0.088 | epoxomicin -0.023 | [11] -0.007

Remaining list, next part

UBE2J1 (UniProt Q9Y385)
inactive: [1] -0.133 | [2] -0.016 | [3] 0.107 | [4] 0.04 | Nexturastat A -0.077 | vemurafenib -0.087 | [5] -0.071 | [6] -0.262 | givinostat 0.098 | barasertib -0.047 | [7] -0.073 | volasertib -0.165 | [8] 0.07 | epoxomicin 0.248 | [9] 0.014 | [10] 0.01 | [11] -0.083 | [12] -0.006

TUBB4A (UniProt M0QYM7)
inactive: [1] -0.095 | [3] -0.188 | [4] -0.097 | Nexturastat A 0 | vemurafenib -0.111 | [5] -0.229 | [6] -0.943 | givinostat 0.179 | barasertib 0.074 | [7] 0.11 | volasertib -0.002 | [8] -0.211 | epoxomicin -0.229 | [13] 0.064 | [9] 0.052 | [10] -0.114 | rosiglitazone 0.205 | [11] 0.062 | [12] -0.3

TTF2 (UniProt Q9UNY4)
inactive: [1] -0.051 | [2] -0.158 | [3] -0.095 | [4] -0.072 | Nexturastat A 0.363 | vemurafenib 0.053 | [5] -0.2 | [6] 0.028 | givinostat 0.067 | [7] 0.003 | volasertib -0.231 | [8] -0.034 | epoxomicin 0.052 | [13] -0.165 | [9] 0.112 | [10] 0.012 | [11] 0.107 | [12] -0.267

UBE2E1 (UniProt P51965)
inactive: [1] 0.032 | [2] -0.263 | [3] 0.057 | [4] 0.039 | Nexturastat A -0.169 | vemurafenib -0.054 | [5] 0.031 | [6] 0.046 | givinostat 0.089 | barasertib 0.059 | volasertib -0.214 | [8] 0.168 | epoxomicin 0.04 | [13] -0.069 | [9] -0.14 | [10] 0.16 | rosiglitazone 0.086 | [11] -0.007 | [12] -0.163

TTMP isoform 3 (UniProt Q5BVD1)
inactive: [1] 0.334 | [2] -0.02 | [4] -0.14 | Nexturastat A 0.324 | [6] -0.046 | givinostat 0.405 | barasertib 0.069 | [8] -0.233 | epoxomicin -0.113 | [13] -0.119 | [9] -0.146 | rosiglitazone 0.058 | [11] -0.122 | [12] -0.053

UBE2G2 (UniProt P60604)
inactive: [1] -0.029 | [2] -0.055 | [3] 0.139 | [4] -0.001 | vemurafenib 0.106 | [5] 0.073 | [6] -0.034 | givinostat 0.033 | barasertib 0.078 | [7] -0.197 | volasertib -0.243 | [8] -0.024 | [13] 0.015 | [9] 0.059 | [10] 0.041 | rosiglitazone 0.043 | [11] -0.033 | [12] -0.244

TXNDC11 (UniProt Q6PKC3)
inactive: [1] -0.003 | [2] 0.003 | [3] 0.037 | [4] -0.125 | Nexturastat A 0.061 | vemurafenib -0.053 | [5] 0.067 | [6] -0.089 | givinostat 0.043 | barasertib 0.026 | [7] -0.027 | volasertib -0.303 | epoxomicin -0.041 | [13] 0.023 | [9] 0.017 | [10] 0.009 | rosiglitazone 0.019 | [11] 0.041 | [12] 0.113
